No constants are given. Whether binding was seen depends on the method and setting. Binding can be weak; no strength is given.
Target: BD-Mer1_(23-341) (Ustilago maydis)
Experiment: two-hybrid

Molecule | binding
AtRFI2B (from UniProt F4J8E5) (enzyme) | binds
AtRFI2A (enzyme, UniProt O82239 1-358) MAGAKDSGCDDDLRIAGGCDPGKRGNPEDSSSPVEVSCSICLESVLDDGTRSKAKLQCGHQFHLDCIGSAFNMKGAMQCPNCRNVEKGQWLYANGSTRPFPEFSMEDWIPEEDLYGLSYPEMQYRVHWCPFGELSQAAASFEELEPATTTYHTEFHGHHAAAVNHSYLAYVGPGPAATPRTSDNNSTDDHPWNSHSNDHFHQLPVAPQYHHHSPSFSLPAAHVVDGEVDSSAARGLPYAHPFLFSHRSNQRSSPAINSYQGSSTQMREQHHAYNHQRQQHHANGPTLASPLISMTRRGLPPPPPPPPMPDQNVGFFIYPGGHHEPETDQIHAWERDWFPHFPVPSNHRTIPSLWHRHF | binds
